Measured values as given in publication PMC11352961 (RSC Chemical Biology, 2024).
HELM strings list residues between dots; [ac] is acetyl, [am] amide, other brackets name non-standard units.

Test: general procedure: Fmoc solid-phase peptide synthesis; Rink Amide AM resin LL (Novabiochem)
Details: whole synthesis, TFA salt

PEPTIDE1{[dR].[dL].[dK].[dR].[dL].[dK].[dR].[dL].[dK].[dK].[dA].[am]}|PEPTIDE2{[dR].[dL].[dK].[dR].[dL].[dK].[dR].[dL]}|PEPTIDE3{[dR].[dL].[dK].[dR].[dL]}|PEPTIDE4{[dR].[dL].[dK].[dR].[dL]}|PEPTIDE5{[dR].[dL]}|PEPTIDE6{[dR].[dL]}|PEPTIDE7{[dR].[dL]}|PEPTIDE8{[dR].[dL]}|CHEM1{[C18]}$PEPTIDE1,PEPTIDE2,9:R3-8:R2|PEPTIDE1,PEPTIDE3,6:R3-5:R2|PEPTIDE2,PEPTIDE4,6:R3-5:R2|PEPTIDE1,PEPTIDE5,3:R3-2:R2|PEPTIDE2,PEPTIDE6,3:R3-2:R2|PEPTIDE3,PEPTIDE7,3:R3-2:R2|PEPTIDE4,PEPTIDE8,3:R3-2:R2|PEPTIDE1,CHEM1,10:R3-1:R2$$$V2.0
isolated yield: 2.3%
